# Reference: the supplement of paper PMC8728848
# This is one part of the list.
# B1: Epa3to2 (Candida glabrata) (protein)
# chain: MGSSHHHHHHSSGLVPRGSHMKRELSSQNPFGYPIGCSPQDVAIIPGLTMELYSYPIVSGTPPNCYDASYVDPEYPRTGYLKRKMVGKSTGVTGNLNYKYSVEKACMVKYGNLPAGYNYNEPLTVSNFTMILYGYFKAQTTGLHTFFVNADDLLYINFGAGNAFDCCKREDSKTKLGEYVAYDIWHVDSSKNKVSLFLEKDLYYPIRMFFNNRDNNSSLDLSFSVNGATDQISDFSGYLYSVPDQPDTCPAHIGYDTTCR
# Assays:
# Test in all cases: glycan array binding signal (z-score within array); higher = stronger binding
# Details in all cases: glycan notation: IUPAC condensed, linker removed
# [1] = biological target: Fuc(a1-2)Gal(b1-4)[Fuc(a1-3)]GlcNAc(b1-2)Man(a1-3)[Fuc(a1-2)Gal(b1-4)[Fuc(a1-3)]GlcNAc(b1-2)Man(a1-6)]Man(b1-4)GlcNAc(b1-4)[Fuc(a1-6)]GlcNAc
# Procedure, shortened: (§1)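 The binding signal is a Z-score computed within each array and averaged over linkers. Arrays of the same protein sequence at different concentrations or buffers were also averaged together. Data originate from 3228 arrays in the Consortium for Functional Glycomics database, kept only where the protein sequence was available.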
# [2] = biological target: Fuc(a1-2)Gal(b1-4)[Fuc(a1-3)]GlcNAc(b1-2)[Fuc(a1-2)Gal(b1-4)[Fuc(a1-3)]GlcNAc(b1-4)]Man(a1-3)[Fuc(a1-2)Gal(b1-4)[Fuc(a1-3)]GlcNAc(b1-2)Man(a1-6)]Man(b1-4)GlcNAc(b1-4)GlcNAc
# Procedure, shortened: as §1
# [3] = biological target: Fuc(a1-2)Gal(b1-4)[Fuc(a1-3)]GlcNAc(b1-3)Gal(b1-4)[Fuc(a1-3)]GlcNAc
# Procedure, shortened: as §1
# [4] = biological target: Fuc(a1-2)Gal(b1-4)[Fuc(a1-3)]GlcNAc(b1-3)Gal(b1-4)[Fuc(a1-3)]GlcNAc(b1-3)Gal(b1-4)[Fuc(a1-3)]GlcNAc
# Procedure, shortened: as §1
# [5] = biological target: Fuc(a1-2)Gal(b1-4)[Fuc(a1-3)]GlcNAc(b1-3)GalNAc
# Procedure, shortened: as §1
# [6] = biological target: Fuc(a1-2)Gal(b1-4)[Fuc(a1-3)]GlcNAc(b1-3)[Neu5Ac(a2-6)Gal(b1-4)GlcNAc(b1-6)]Gal(b1-4)Glc
# Procedure, shortened: as §1
# [7] = biological target: Fuc(a1-2)Gal3S(b1-4)GlcNAc
# Procedure, shortened: as §1
# [8] = biological target: Fuc(a1-2)Gal6S(b1-3)GlcNAc
# Procedure, shortened: as §1
# [9] = biological target: Fuc(a1-2)Gal6S(b1-3)GlcNAc6S
# Procedure, shortened: as §1
# Fuc(a1-2)Gal6S(b1-4)Glc = biological target: Fuc(a1-2)Gal6S(b1-4)Glc
# Procedure, shortened: as §1
# [10] = biological target: Fuc(a1-2)Gal6S(b1-4)Glc6S
# Procedure, shortened: as §1
# Fuc(a1-2)[Gal(a1-3)]Gal = biological target: Fuc(a1-2)[Gal(a1-3)]Gal
# Procedure, shortened: as §1
# [11] = biological target: Fuc(a1-2)[Gal(a1-3)]Gal(b1-3)GalNAc
# Procedure, shortened: as §1
# [12] = biological target: Fuc(a1-2)[Gal(a1-3)]Gal(b1-3)GalNAc(b1-3)Gal(a1-4)Gal(b1-4)Glc
# Procedure, shortened: as §1
# [13] = biological target: Fuc(a1-2)[Gal(a1-3)]Gal(b1-3)GlcNAc
# Procedure, shortened: as §1
# [14] = biological target: Fuc(a1-2)[Gal(a1-3)]Gal(b1-3)GlcNAc(b1-2)Man(a1-3)[Fuc(a1-2)[Gal(a1-3)]Gal(b1-3)GlcNAc(b1-2)Man(a1-6)]Man(b1-4)GlcNAc(b1-4)GlcNAc
# Procedure, shortened: as §1
# [15] = biological target: Fuc(a1-2)[Gal(a1-3)]Gal(b1-3)GlcNAc(b1-2)Man(a1-3)[Fuc(a1-2)[Gal(a1-3)]Gal(b1-3)GlcNAc(b1-2)Man(a1-6)]Man(b1-4)GlcNAc(b1-4)[Fuc(a1-6)]GlcNAc
# Procedure, shortened: as §1
# [16] = biological target: Fuc(a1-2)[Gal(a1-3)]Gal(b1-3)GlcNAc(b1-3)GalNAc
# Procedure, shortened: as §1
# [17] = biological target: Fuc(a1-2)[Gal(a1-3)]Gal(b1-3)GlcNAc(b1-6)GalNAc
# Procedure, shortened: as §1
# [18] = biological target: Fuc(a1-2)[Gal(a1-3)]Gal(b1-4)Glc
# Procedure, shortened: as §1
# [19] = biological target: Fuc(a1-2)[Gal(a1-3)]Gal(b1-4)GlcNAc
# Procedure, shortened: as §1
# [20] = biological target: Fuc(a1-2)[Gal(a1-3)]Gal(b1-4)GlcNAc(b1-2)Man
# Procedure, shortened: as §1
# [21] = biological target: Fuc(a1-2)[Gal(a1-3)]Gal(b1-4)GlcNAc(b1-2)Man(a1-3)[Fuc(a1-2)[Gal(a1-3)]Gal(b1-4)GlcNAc(b1-2)Man(a1-6)]Man(b1-4)GlcNAc(b1-4)GlcNAc
# Procedure, shortened: as §1
# [22] = biological target: Fuc(a1-2)[Gal(a1-3)]Gal(b1-4)GlcNAc(b1-2)Man(a1-3)[Fuc(a1-2)[Gal(a1-3)]Gal(b1-4)GlcNAc(b1-2)Man(a1-6)]Man(b1-4)GlcNAc(b1-4)[Fuc(a1-6)]GlcNAc
# Procedure, shortened: as §1
# [23] = biological target: Fuc(a1-2)[Gal(a1-3)]Gal(b1-4)GlcNAc(b1-3)GalNAc
# Procedure, shortened: as §1
# [24] = biological target: Fuc(a1-2)[Gal(a1-3)]Gal(b1-4)GlcNAc(b1-3)[Fuc(a1-2)[Gal(a1-3)]Gal(b1-4)GlcNAc(b1-6)]GalNAc
# Procedure, shortened: as §1
# [25] = biological target: Fuc(a1-2)[Gal(a1-3)]Gal(b1-4)GlcNAc(b1-6)GalNAc
# Procedure, shortened: as §1
# [26] = biological target: Fuc(a1-2)[Gal(a1-3)]Gal(b1-4)[Fuc(a1-3)]Glc
# Procedure, shortened: as §1
# [27] = biological target: Fuc(a1-2)[Gal(a1-3)]Gal(b1-4)[Fuc(a1-3)]GlcNAc
# Procedure, shortened: as §1
# [28] = biological target: Fuc(a1-2)[Gal(a1-3)]Gal(b1-4)[Fuc(a1-3)]GlcNAc(b1-3)GalNAc
# Procedure, shortened: as §1
# [29] = biological target: Fuc(a1-2)[Gal(a1-4)]Gal(b1-4)GlcNAc
# Procedure, shortened: as §1
# [30] = biological target: Fuc(a1-2)[GalNAc(a1-3)]Gal
# Procedure, shortened: as §1
# [31] = biological target: Fuc(a1-2)[GalNAc(a1-3)]Gal(b1-3)GalNAc(a1-3)[Fuc(a1-2)]Gal(b1-4)GlcNAc
# Procedure, shortened: as §1
# [32] = biological target: Fuc(a1-2)[GalNAc(a1-3)]Gal(b1-3)GalNAc(b1-3)Gal(a1-4)Gal(b1-4)Glc
# Procedure, shortened: as §1
# [33] = biological target: Fuc(a1-2)[GalNAc(a1-3)]Gal(b1-3)GlcNAc
# Procedure, shortened: as §1
# [34] = biological target: Fuc(a1-2)[GalNAc(a1-3)]Gal(b1-3)GlcNAc(b1-2)Man(a1-3)[Fuc(a1-2)[GalNAc(a1-3)]Gal(b1-3)GlcNAc(b1-2)Man(a1-6)]Man(b1-4)GlcNAc(b1-4)GlcNAc
# Procedure, shortened: as §1
# [35] = biological target: Fuc(a1-2)[GalNAc(a1-3)]Gal(b1-3)GlcNAc(b1-2)Man(a1-3)[Fuc(a1-2)[GalNAc(a1-3)]Gal(b1-3)GlcNAc(b1-2)Man(a1-6)]Man(b1-4)GlcNAc(b1-4)[Fuc(a1-6)]GlcNAc
# Procedure, shortened: as §1
# [36] = biological target: Fuc(a1-2)[GalNAc(a1-3)]Gal(b1-3)GlcNAc(b1-3)GalNAc
# Procedure, shortened: as §1
binder,measurement,setting,value
B1,glycan array binding signal (z-score),[1],2.47
same,glycan array binding signal (z-score),[2],1.22
same,glycan array binding signal (z-score),[3],-0.557
same,glycan array binding signal (z-score),[4],-1.04
same,glycan array binding signal (z-score),[5],-1.02
same,glycan array binding signal (z-score),[6],-0.324
same,glycan array binding signal (z-score),[7],-0.104
same,glycan array binding signal (z-score),[8],0.309
same,glycan array binding signal (z-score),[9],2.11
same,glycan array binding signal (z-score),Fuc(a1-2)Gal6S(b1-4)Glc,0.725
same,glycan array binding signal (z-score),[10],0.101
same,glycan array binding signal (z-score),Fuc(a1-2)[Gal(a1-3)]Gal,-0.097
same,glycan array binding signal (z-score),[11],1.16
same,glycan array binding signal (z-score),[12],1.1
same,glycan array binding signal (z-score),[13],-0.392
same,glycan array binding signal (z-score),[14],-0.575
same,glycan array binding signal (z-score),[15],0.353
same,glycan array binding signal (z-score),[16],-0.854
same,glycan array binding signal (z-score),[17],1.05
same,glycan array binding signal (z-score),[18],0.436
same,glycan array binding signal (z-score),[19],-0.27
same,glycan array binding signal (z-score),[20],-0.413
same,glycan array binding signal (z-score),[21],-0.332
same,glycan array binding signal (z-score),[22],0.489
same,glycan array binding signal (z-score),[23],-0.527
same,glycan array binding signal (z-score),[24],1.44
same,glycan array binding signal (z-score),[25],-0.714
same,glycan array binding signal (z-score),[26],0.485
same,glycan array binding signal (z-score),[27],-0.786
same,glycan array binding signal (z-score),[28],-0.581
same,glycan array binding signal (z-score),[29],-0.207
same,glycan array binding signal (z-score),[30],-0.653
same,glycan array binding signal (z-score),[31],-0.917
same,glycan array binding signal (z-score),[32],-0.415
same,glycan array binding signal (z-score),[33],1.91
same,glycan array binding signal (z-score),[34],-0.169
same,glycan array binding signal (z-score),[35],0.117
same,glycan array binding signal (z-score),[36],-0.109

# Fetched one by one from above:
binder,measurement,setting,value
B1,glycan array binding signal (z-score),[10],0.101
same,glycan array binding signal (z-score),[1],2.47
same,glycan array binding signal (z-score),[4],-1.04
